# Assay results published in the supplement of paper PMC8728848.
# The other results are listed elsewhere or left out.
# B1: PGP3 (Chlamydia trachomatis), P0CE18 (protein)
# chain: MGNSGFYLYNTQNCVFADNIKVGQMTEPLKDQQIILGTTSTPVAAKMTASDGISLTVSNNPSTNASITIGLDAEKAYQLILEKLGDQILGGIADTIVDSTVQDILDKITTDPSLGLLKAFNNFPITNKIQCNGLFTPRNIETLLGGTEIGKFTVTPKSSGSMFLVSADIIASRMEGGVVLALVREGDSKPYAISYGYSSGVPNLCSLRTRIINTGLTPTTYSLRVGGLESGVVWVNALSNGNDILGITNTSNVSFLEVIPQTNA
# Legend:
# Assay in all cases: glycan array binding signal (z-score within array); higher = stronger binding
# Details in all cases: glycan notation: IUPAC condensed, linker removed
# [1] = molecular target: GlcNAc(b1-3)Gal(b1-4)Glc
# Summary of the method: (§1)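 The binding signal is a Z-score computed within each array and averaged over linkers. Arrays of the same protein sequence at different concentrations or buffers were also averaged together. Data originate from 3228 arrays in the Consortium for Functional Glycomics database, kept only where the protein sequence was available.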
# [2] = molecular target: GlcNAc(b1-3)Gal(b1-4)GlcNAc
# Summary of the method: as §1
# [3] = molecular target: GlcNAc(b1-3)Gal(b1-4)GlcNAc(b1-3)Gal(b1-4)GlcNAc
# Summary of the method: as §1
# [4] = molecular target: GlcNAc(b1-3)GalNAc
# Summary of the method: as §1
# [5] = molecular target: GlcNAc(b1-3)Man
# Summary of the method: as §1
# [6] = molecular target: GlcNAc(b1-3)[GlcNAc(b1-4)][GlcNAc(b1-6)]GlcNAc
# Summary of the method: as §1
# [7] = molecular target: GlcNAc(b1-3)[GlcNAc(b1-6)]Gal(b1-4)GlcNAc
# Summary of the method: as §1
# [8] = molecular target: GlcNAc(b1-3)[GlcNAc(b1-6)]GalNAc
# Summary of the method: as §1
# [9] = molecular target: GlcNAc(b1-4)Gal(b1-4)GlcNAc
# Summary of the method: as §1
# [10] = molecular target: GlcNAc(b1-4)GlcNAc
# Summary of the method: as §1
# [11] = molecular target: GlcNAc(b1-4)GlcNAc(b1-4)GlcNAc
# Summary of the method: as §1
# [12] = molecular target: GlcNAc(b1-4)GlcNAc(b1-4)GlcNAc(b1-4)GlcNAc(b1-4)GlcNAc
# Summary of the method: as §1
# [13] = molecular target: GlcNAc(b1-4)GlcNAc(b1-4)GlcNAc(b1-4)GlcNAc(b1-4)GlcNAc(b1-4)GlcNAc
# Summary of the method: as §1
# [14] = molecular target: GlcNAc(b1-4)[GlcNAc(b1-6)]GalNAc
# Summary of the method: as §1
# [15] = molecular target: GlcNAc(b1-6)Gal(b1-4)GlcNAc
# Summary of the method: as §1
# [16] = molecular target: GlcNAc(b1-6)GalNAc
# Summary of the method: as §1
# [17] = molecular target: GlcNAc3Prop(b1-4)GlcNAc
# Summary of the method: as §1
# [18] = molecular target: GlcNAc6S(b1-3)Gal(b1-4)GlcNAc
# Summary of the method: as §1
# [19] = molecular target: Kdn(a2-3)Gal(b1-3)GalNAc
# Summary of the method: as §1
# [20] = molecular target: Kdn(a2-3)Gal(b1-3)GlcNAc
# Summary of the method: as §1
# [21] = molecular target: Kdn(a2-3)Gal(b1-4)Glc
# Summary of the method: as §1
# [22] = molecular target: Kdn(a2-3)Gal(b1-4)GlcNAc
# Summary of the method: as §1
# [23] = molecular target: Kdn(a2-3)Gal(b1-4)[Fuc(a1-3)]GlcNAc
# Summary of the method: as §1
# [24] = molecular target: Kdn(a2-6)Gal(b1-4)GlcNAc
# Summary of the method: as §1
# [25] = molecular target: Man(a1-2)Man(a1-2)Man(a1-3)Man
# Summary of the method: as §1
# [26] = molecular target: Man(a1-2)Man(a1-2)Man(a1-6)[Man(a1-3)]Man
# Summary of the method: as §1
# [27] = molecular target: Man(a1-2)Man(a1-3)Man
# Summary of the method: as §1
# [28] = molecular target: Man(a1-2)Man(a1-3)[Man(a1-2)Man(a1-6)]Man
# Summary of the method: as §1
# [29] = molecular target: Man(a1-2)Man(a1-3)[Man(a1-2)Man(a1-6)]Man(a1-6)[Man(a1-2)Man(a1-2)Man(a1-3)]Man
# Summary of the method: as §1
# [30] = molecular target: Man(a1-2)Man(a1-3)[Man(a1-2)Man(a1-6)]Man(a1-6)[Man(a1-2)Man(a1-2)Man(a1-3)]Man(b1-4)GlcNAc(b1-4)GlcNAc
# Summary of the method: as §1
# [31] = molecular target: Man(a1-2)Man(a1-3)[Man(a1-6)]Man(a1-6)[Man(a1-2)Man(a1-3)]Man(b1-4)GlcNAc(b1-4)GlcNAc
# Summary of the method: as §1
# [32] = molecular target: Man(a1-2)Man(a1-6)[Man(a1-3)]Man(a1-6)[Man(a1-2)Man(a1-2)Man(a1-3)]Man
# Summary of the method: as §1
# [33] = molecular target: Man(a1-2)Man(a1-6)[Man(a1-3)]Man(a1-6)[Man(a1-2)Man(a1-2)Man(a1-3)]Man(b1-4)GlcNAc(b1-4)GlcNAc
# Summary of the method: as §1
# [34] = molecular target: Man(a1-3)[Man(a1-6)]Man
# Summary of the method: as §1
# [35] = molecular target: Man(a1-3)[Man(a1-6)]Man(a1-6)[Man(a1-2)Man(a1-3)]Man(b1-4)GlcNAc(b1-4)GlcNAc
# Summary of the method: as §1
# [36] = molecular target: Man(a1-3)[Man(a1-6)]Man(a1-6)[Man(a1-3)]Man
# Summary of the method: as §1
# [37] = molecular target: Man(a1-3)[Man(a1-6)]Man(a1-6)[Man(a1-3)]Man(b1-4)GlcNAc(b1-4)GlcNAc
# Summary of the method: as §1
# [38] = molecular target: Man(a1-3)[Man(a1-6)]Man(b1-4)GlcNAc(b1-4)GlcNAc
# Summary of the method: as §1
# [39] = molecular target: Man(a1-6)Man
# Summary of the method: as §1
# [40] = molecular target: Man(b1-4)GlcNAc
# Summary of the method: as §1
# [41] = molecular target: Neu5Ac(a2-3)Gal
# Summary of the method: as §1
# [42] = molecular target: Neu5Ac(a2-3)Gal(b1-3)GalNAc
# Summary of the method: as §1
# [43] = molecular target: Neu5Ac(a2-3)Gal(b1-3)GalNAc(b1-3)Gal(a1-4)Gal(b1-4)Glc
# Summary of the method: as §1
# [44] = molecular target: Neu5Ac(a2-3)Gal(b1-3)GalNAc(b1-4)[Neu5Ac(a2-3)]Gal(b1-4)Glc
# Summary of the method: as §1
# [45] = molecular target: Neu5Ac(a2-3)Gal(b1-3)GalNAc(b1-4)[Neu5Ac(a2-8)Neu5Ac(a2-3)]Gal(b1-4)Glc
# Summary of the method: as §1
# [46] = molecular target: Neu5Ac(a2-3)Gal(b1-3)GalNAc6S
# Summary of the method: as §1
# [47] = molecular target: Neu5Ac(a2-3)Gal(b1-3)GlcNAc
# Summary of the method: as §1
# [48] = molecular target: Neu5Ac(a2-3)Gal(b1-3)GlcNAc(b1-3)Gal(b1-3)GlcNAc
# Summary of the method: as §1
# [49] = molecular target: Neu5Ac(a2-3)Gal(b1-3)GlcNAc(b1-3)Gal(b1-4)GlcNAc
# Summary of the method: as §1
# [50] = molecular target: Neu5Ac(a2-3)Gal(b1-3)GlcNAc(b1-3)GalNAc
# Summary of the method: as §1
# [51] = molecular target: Neu5Ac(a2-3)Gal(b1-3)GlcNAc6S
# Summary of the method: as §1
# [52] = molecular target: Neu5Ac(a2-3)Gal(b1-3)[Fuc(a1-4)]GlcNAc
# Summary of the method: as §1
# [53] = molecular target: Neu5Ac(a2-3)Gal(b1-3)[Fuc(a1-4)]GlcNAc(b1-3)Gal(b1-3)[Fuc(a1-4)]GlcNAc
# Summary of the method: as §1
# [54] = molecular target: Neu5Ac(a2-3)Gal(b1-3)[Fuc(a1-4)]GlcNAc(b1-3)Gal(b1-4)[Fuc(a1-3)]GlcNAc
# Summary of the method: as §1
# [55] = molecular target: Neu5Ac(a2-3)Gal(b1-3)[Neu5Ac(a2-3)Gal(b1-4)]GlcNAc
# Summary of the method: as §1
# [56] = molecular target: Neu5Ac(a2-3)Gal(b1-3)[Neu5Ac(a2-6)]GalNAc
# Summary of the method: as §1
# [57] = molecular target: Neu5Ac(a2-3)Gal(b1-4)Glc
# Summary of the method: as §1
# [58] = molecular target: Neu5Ac(a2-3)Gal(b1-4)GlcNAc
# Summary of the method: as §1
# [59] = molecular target: Neu5Ac(a2-3)Gal(b1-4)GlcNAc(b1-2)Man(a1-3)[GlcNAc(b1-2)Man(b1-4)GlcNAc(b1-2)Man(a1-6)]Man(b1-4)GlcNAc(b1-4)GlcNAc
# Summary of the method: as §1
# [60] = molecular target: Neu5Ac(a2-3)Gal(b1-4)GlcNAc(b1-2)Man(a1-3)[Neu5Ac(a2-6)Gal(b1-4)GlcNAc(b1-2)Man(a1-6)]Man(b1-4)GlcNAc(b1-4)GlcNAc
# Summary of the method: as §1
# [61] = molecular target: Neu5Ac(a2-3)Gal(b1-4)GlcNAc(b1-3)Gal
# Summary of the method: as §1
# [62] = molecular target: Neu5Ac(a2-3)Gal(b1-4)GlcNAc(b1-3)Gal(b1-3)GlcNAc
# Summary of the method: as §1
# [63] = molecular target: Neu5Ac(a2-3)Gal(b1-4)GlcNAc(b1-3)Gal(b1-4)GlcNAc
# Summary of the method: as §1
# [64] = molecular target: Neu5Ac(a2-3)Gal(b1-4)GlcNAc(b1-3)Gal(b1-4)GlcNAc(b1-3)Gal(b1-4)GlcNAc
# Summary of the method: as §1
# [65] = molecular target: Neu5Ac(a2-3)Gal(b1-4)GlcNAc(b1-3)Gal(b1-4)[Fuc(a1-3)]GlcNAc
# Summary of the method: as §1
binder,measurement,setting,value
B1,glycan array binding signal (z-score),[1],-0.92
same,glycan array binding signal (z-score),[2],-0.086
same,glycan array binding signal (z-score),[3],-1.52
same,glycan array binding signal (z-score),[4],-0.558
same,glycan array binding signal (z-score),[5],-1.25
same,glycan array binding signal (z-score),[6],-1.18
same,glycan array binding signal (z-score),[7],-2.01
same,glycan array binding signal (z-score),[8],-0.587
same,glycan array binding signal (z-score),[9],-1.24
same,glycan array binding signal (z-score),[10],0.682
same,glycan array binding signal (z-score),[11],0.112
same,glycan array binding signal (z-score),[12],1.18
same,glycan array binding signal (z-score),[13],0.545
same,glycan array binding signal (z-score),[14],-1.49
same,glycan array binding signal (z-score),[15],-0.774
same,glycan array binding signal (z-score),[16],-0.584
same,glycan array binding signal (z-score),[17],0.228
same,glycan array binding signal (z-score),[18],0.037
same,glycan array binding signal (z-score),[19],0.412
same,glycan array binding signal (z-score),[20],-1.9
same,glycan array binding signal (z-score),[21],0.791
same,glycan array binding signal (z-score),[22],1.53
same,glycan array binding signal (z-score),[23],0.816
same,glycan array binding signal (z-score),[24],0.145
same,glycan array binding signal (z-score),[25],-0.116
same,glycan array binding signal (z-score),[26],-1.01
same,glycan array binding signal (z-score),[27],-0.404
same,glycan array binding signal (z-score),[28],0.09
same,glycan array binding signal (z-score),[29],0.073
same,glycan array binding signal (z-score),[30],0.211
same,glycan array binding signal (z-score),[31],-0.08
same,glycan array binding signal (z-score),[32],0.585
same,glycan array binding signal (z-score),[33],0.271
same,glycan array binding signal (z-score),[34],-0.232
same,glycan array binding signal (z-score),[35],-0.694
same,glycan array binding signal (z-score),[36],0.157
same,glycan array binding signal (z-score),[37],0.371
same,glycan array binding signal (z-score),[38],-0.93
same,glycan array binding signal (z-score),[39],0.748
same,glycan array binding signal (z-score),[40],0.253
same,glycan array binding signal (z-score),[41],0.478
same,glycan array binding signal (z-score),[42],0.031
same,glycan array binding signal (z-score),[43],-0.944
same,glycan array binding signal (z-score),[44],-1.29
same,glycan array binding signal (z-score),[45],0.558
same,glycan array binding signal (z-score),[46],-1.42
same,glycan array binding signal (z-score),[47],0.288
same,glycan array binding signal (z-score),[48],-0.785
same,glycan array binding signal (z-score),[49],0.956
same,glycan array binding signal (z-score),[50],0.649
same,glycan array binding signal (z-score),[51],-1.31
same,glycan array binding signal (z-score),[52],-0.97
same,glycan array binding signal (z-score),[53],0.109
same,glycan array binding signal (z-score),[54],-0.346
same,glycan array binding signal (z-score),[55],0.901
same,glycan array binding signal (z-score),[56],0.039
same,glycan array binding signal (z-score),[57],-1.46
same,glycan array binding signal (z-score),[58],0.238
same,glycan array binding signal (z-score),[59],-0.621
same,glycan array binding signal (z-score),[60],-0.457
same,glycan array binding signal (z-score),[61],0.551
same,glycan array binding signal (z-score),[62],-0.5
same,glycan array binding signal (z-score),[63],-0.444
same,glycan array binding signal (z-score),[64],-0.859
same,glycan array binding signal (z-score),[65],-0.486

# Three entries picked at random from those above, as already listed:
binder,measurement,setting,value
B1,glycan array binding signal (z-score),[11],0.112
same,glycan array binding signal (z-score),[33],0.271
same,glycan array binding signal (z-score),[45],0.558
